This is one part of the list.
compound: C[C@H](C1=CC=C(C=C1)C(=O)NC2=C3C=CNC3=NC=C2)N; assay: log2 fold change, soluble protein after heating vs DMSO (PISA); higher = thermal stabilisation; K562 lysate, 10 uM; active = over 0.2 and 3.5 SD of the protein, either way, in both replicates (recomputed)
Method in brief: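 To prepare the extract, K562 pellets were dounce-homogenised in PBS pH 7.4 with 1 mM MgCl2, giving crude material at 1 mg/mL protein. This was treated with 10 μM compound for 30 min, then heated in aliquots for 3 min over 48°C-58°C before pooling and addition of NP-40 to 0.5% at 4°C. Centrifugation at 21,000xg for 90 min left soluble protein in the supernatant, which TMTpro 16plex LC-MS/MS quantified with equalised channel sums. Results are log-two fold changes in thermal stability compared with solvent controls, from duplicates.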

Protein sequences, listed by entry. Tags and fused reporters are not part of them. Lines headed by an entry give the natural chain unless they say otherwise; changes in a name come on top.
UniProt Q96CD0: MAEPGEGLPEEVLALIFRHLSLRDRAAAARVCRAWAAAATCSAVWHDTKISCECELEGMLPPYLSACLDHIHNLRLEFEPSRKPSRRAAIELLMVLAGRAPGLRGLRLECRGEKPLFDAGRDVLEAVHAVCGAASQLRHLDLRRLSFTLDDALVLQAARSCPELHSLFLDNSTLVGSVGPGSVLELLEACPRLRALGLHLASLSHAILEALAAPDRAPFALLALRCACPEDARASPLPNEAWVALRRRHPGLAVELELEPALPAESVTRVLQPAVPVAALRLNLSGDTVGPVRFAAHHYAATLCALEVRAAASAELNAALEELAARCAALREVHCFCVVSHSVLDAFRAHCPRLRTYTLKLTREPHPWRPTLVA
UniProt P10109: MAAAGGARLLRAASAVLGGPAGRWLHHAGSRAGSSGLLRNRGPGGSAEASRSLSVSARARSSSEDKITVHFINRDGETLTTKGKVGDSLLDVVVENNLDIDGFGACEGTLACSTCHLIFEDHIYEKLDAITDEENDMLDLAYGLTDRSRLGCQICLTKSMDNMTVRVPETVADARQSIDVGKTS
UniProt Q9Y680: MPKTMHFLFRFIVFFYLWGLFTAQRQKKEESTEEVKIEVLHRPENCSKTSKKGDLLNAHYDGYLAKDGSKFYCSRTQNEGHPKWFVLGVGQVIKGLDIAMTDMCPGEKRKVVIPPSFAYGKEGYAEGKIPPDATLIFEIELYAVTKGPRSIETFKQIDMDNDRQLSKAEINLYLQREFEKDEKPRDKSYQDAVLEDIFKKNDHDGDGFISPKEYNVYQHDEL
UniProt Q9NVI1: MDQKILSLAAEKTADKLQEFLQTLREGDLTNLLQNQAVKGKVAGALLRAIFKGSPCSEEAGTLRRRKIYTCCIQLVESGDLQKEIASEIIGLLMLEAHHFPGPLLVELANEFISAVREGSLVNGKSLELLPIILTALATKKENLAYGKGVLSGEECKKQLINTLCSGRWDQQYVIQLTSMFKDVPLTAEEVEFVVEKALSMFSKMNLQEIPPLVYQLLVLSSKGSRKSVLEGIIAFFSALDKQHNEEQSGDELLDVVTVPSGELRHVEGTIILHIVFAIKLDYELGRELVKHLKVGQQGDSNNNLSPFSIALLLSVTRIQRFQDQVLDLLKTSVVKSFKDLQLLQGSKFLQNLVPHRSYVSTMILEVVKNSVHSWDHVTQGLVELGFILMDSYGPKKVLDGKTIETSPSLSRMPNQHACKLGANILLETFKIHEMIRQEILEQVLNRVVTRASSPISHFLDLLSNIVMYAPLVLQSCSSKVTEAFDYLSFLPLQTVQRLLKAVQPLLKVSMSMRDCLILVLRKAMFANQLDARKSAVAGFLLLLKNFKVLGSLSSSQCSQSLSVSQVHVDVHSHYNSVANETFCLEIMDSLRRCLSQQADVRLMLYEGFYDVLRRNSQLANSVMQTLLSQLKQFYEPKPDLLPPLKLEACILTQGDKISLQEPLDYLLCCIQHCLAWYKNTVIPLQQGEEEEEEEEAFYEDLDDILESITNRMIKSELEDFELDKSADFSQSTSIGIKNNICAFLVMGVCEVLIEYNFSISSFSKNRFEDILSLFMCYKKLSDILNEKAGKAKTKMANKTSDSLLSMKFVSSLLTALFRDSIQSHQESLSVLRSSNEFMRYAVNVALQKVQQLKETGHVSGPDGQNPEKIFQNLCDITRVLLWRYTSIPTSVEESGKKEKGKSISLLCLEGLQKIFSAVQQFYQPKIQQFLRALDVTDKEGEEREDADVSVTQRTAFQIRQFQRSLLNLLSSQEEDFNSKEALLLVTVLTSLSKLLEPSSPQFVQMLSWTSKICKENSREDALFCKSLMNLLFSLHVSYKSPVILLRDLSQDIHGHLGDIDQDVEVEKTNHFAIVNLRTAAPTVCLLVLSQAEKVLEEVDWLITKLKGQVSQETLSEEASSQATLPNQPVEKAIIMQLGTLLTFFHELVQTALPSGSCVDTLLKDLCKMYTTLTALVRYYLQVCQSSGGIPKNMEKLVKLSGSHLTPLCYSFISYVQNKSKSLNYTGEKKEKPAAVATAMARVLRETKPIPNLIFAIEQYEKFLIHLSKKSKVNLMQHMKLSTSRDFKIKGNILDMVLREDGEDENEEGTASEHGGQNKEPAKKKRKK
UniProt Q6P4F2: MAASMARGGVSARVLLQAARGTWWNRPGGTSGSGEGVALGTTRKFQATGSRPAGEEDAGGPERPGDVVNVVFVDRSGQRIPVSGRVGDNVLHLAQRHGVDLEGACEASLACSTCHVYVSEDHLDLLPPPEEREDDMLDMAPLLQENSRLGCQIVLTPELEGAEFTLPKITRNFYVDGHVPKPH
UniProt Q96C11: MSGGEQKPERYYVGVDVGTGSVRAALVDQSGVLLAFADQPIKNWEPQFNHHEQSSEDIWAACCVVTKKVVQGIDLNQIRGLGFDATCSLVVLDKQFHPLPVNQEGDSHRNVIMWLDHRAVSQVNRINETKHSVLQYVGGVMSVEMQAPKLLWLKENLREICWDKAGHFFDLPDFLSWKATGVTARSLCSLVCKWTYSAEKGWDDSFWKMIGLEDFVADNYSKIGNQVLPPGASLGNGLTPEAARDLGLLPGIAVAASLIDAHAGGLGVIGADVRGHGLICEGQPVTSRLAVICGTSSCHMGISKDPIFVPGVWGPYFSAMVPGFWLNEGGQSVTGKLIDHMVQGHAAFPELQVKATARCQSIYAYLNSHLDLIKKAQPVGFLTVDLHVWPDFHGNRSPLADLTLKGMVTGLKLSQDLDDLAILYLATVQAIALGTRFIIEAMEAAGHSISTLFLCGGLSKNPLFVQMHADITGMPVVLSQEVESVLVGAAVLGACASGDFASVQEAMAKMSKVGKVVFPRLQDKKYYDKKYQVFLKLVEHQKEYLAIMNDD
UniProt Q9UK73, whole entry, looked up: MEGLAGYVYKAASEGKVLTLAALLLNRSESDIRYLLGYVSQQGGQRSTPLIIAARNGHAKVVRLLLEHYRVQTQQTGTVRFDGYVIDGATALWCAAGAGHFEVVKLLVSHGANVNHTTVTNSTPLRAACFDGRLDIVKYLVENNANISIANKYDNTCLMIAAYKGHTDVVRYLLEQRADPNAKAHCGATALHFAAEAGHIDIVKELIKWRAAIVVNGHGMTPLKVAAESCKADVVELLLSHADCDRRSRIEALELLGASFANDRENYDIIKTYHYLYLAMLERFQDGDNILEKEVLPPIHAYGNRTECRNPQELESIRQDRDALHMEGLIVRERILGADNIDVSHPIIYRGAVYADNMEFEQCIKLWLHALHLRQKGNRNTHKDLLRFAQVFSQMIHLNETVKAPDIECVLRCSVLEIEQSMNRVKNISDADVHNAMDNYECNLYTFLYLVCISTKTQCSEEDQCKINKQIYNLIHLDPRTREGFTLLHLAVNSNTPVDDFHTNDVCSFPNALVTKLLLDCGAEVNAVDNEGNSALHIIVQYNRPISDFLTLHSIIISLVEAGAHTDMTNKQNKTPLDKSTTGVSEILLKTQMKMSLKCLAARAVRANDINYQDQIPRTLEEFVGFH
UniProt Q9UBU6: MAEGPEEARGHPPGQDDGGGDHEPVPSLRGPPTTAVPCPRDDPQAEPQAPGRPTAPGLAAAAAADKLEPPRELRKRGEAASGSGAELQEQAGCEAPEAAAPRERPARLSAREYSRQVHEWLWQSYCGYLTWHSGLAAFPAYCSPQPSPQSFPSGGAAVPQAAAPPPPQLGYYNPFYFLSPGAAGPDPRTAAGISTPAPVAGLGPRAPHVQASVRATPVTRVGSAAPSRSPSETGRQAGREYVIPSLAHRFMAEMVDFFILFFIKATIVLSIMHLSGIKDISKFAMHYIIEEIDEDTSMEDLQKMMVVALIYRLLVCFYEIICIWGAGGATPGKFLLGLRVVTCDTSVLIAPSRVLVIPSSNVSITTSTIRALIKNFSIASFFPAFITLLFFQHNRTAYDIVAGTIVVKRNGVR
UniProt Q8N3X1: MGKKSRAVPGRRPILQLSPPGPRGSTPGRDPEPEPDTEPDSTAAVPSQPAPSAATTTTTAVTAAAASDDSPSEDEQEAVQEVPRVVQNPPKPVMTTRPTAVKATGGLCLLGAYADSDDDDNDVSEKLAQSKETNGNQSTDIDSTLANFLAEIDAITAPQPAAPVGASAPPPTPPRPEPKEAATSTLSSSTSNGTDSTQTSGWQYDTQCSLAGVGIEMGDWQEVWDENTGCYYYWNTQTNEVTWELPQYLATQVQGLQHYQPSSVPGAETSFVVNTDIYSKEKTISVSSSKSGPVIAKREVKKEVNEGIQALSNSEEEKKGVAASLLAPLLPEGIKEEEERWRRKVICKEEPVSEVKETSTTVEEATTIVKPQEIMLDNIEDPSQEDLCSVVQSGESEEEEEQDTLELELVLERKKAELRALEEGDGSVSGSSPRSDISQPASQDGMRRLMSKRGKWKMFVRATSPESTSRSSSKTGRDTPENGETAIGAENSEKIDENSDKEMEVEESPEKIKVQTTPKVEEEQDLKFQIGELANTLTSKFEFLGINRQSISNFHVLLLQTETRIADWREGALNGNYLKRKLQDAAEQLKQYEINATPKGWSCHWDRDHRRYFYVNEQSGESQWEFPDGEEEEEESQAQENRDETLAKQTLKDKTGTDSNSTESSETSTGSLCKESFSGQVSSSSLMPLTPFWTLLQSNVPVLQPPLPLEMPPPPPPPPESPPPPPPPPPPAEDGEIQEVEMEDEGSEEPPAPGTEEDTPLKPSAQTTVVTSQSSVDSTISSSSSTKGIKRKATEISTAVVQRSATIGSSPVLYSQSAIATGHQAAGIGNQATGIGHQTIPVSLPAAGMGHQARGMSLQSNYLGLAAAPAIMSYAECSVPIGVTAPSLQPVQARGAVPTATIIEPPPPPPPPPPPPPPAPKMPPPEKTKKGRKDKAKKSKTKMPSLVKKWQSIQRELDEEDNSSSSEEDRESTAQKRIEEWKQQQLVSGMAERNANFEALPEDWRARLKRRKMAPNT
UniProt Q13045: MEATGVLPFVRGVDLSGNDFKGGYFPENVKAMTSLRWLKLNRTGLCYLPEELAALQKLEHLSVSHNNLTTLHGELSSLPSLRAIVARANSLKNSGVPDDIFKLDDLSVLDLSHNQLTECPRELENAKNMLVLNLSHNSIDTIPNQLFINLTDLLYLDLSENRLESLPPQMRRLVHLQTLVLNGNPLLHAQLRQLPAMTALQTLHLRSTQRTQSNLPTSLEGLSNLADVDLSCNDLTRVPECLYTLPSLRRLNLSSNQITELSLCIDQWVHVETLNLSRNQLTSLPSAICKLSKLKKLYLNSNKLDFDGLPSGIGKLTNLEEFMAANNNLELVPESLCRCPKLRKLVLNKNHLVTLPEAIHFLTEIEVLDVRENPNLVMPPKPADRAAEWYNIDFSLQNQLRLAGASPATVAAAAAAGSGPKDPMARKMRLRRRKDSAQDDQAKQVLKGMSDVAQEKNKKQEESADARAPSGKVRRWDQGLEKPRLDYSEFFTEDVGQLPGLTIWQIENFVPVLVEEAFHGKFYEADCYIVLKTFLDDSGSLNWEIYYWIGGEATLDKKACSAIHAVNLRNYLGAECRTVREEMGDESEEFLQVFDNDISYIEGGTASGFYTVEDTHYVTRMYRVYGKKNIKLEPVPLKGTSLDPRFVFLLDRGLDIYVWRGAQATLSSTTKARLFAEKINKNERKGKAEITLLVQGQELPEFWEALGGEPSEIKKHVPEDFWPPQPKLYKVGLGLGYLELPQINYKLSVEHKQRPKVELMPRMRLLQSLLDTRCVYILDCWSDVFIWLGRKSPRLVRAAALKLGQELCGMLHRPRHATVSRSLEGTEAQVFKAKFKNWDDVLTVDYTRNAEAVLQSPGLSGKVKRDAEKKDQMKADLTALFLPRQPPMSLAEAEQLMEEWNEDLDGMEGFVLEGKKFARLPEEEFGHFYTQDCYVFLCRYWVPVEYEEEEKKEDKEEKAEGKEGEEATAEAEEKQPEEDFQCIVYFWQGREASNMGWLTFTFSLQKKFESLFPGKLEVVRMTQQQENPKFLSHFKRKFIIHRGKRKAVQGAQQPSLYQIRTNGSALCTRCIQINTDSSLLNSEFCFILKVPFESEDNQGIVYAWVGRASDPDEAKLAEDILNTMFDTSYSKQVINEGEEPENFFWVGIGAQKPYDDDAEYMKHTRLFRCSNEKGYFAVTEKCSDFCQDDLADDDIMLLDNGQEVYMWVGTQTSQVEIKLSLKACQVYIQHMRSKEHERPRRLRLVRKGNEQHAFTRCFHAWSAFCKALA
UniProt P39748, whole entry, looked up: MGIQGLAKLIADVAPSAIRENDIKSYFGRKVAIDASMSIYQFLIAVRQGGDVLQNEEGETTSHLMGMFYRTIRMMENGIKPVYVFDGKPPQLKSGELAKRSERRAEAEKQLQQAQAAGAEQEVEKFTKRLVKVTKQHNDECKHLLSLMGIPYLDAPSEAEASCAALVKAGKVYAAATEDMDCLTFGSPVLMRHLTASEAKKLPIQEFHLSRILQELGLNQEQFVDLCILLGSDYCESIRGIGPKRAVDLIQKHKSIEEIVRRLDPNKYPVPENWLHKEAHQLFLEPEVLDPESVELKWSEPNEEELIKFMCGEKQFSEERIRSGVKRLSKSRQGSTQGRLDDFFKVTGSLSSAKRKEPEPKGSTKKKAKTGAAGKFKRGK

log2 fold change, inactive:
FN3K (UniProt Q9H479) 0.072, FBXL8 (UniProt Q96CD0) -0.043, FARSA (UniProt Q9Y285) -0.003, FKBP2 (UniProt P26885) 0.156, FDX1 (UniProt P10109) 0.014, FGFR1OP2 (UniProt Q9NVK5) -0.019, FKBP7 (UniProt Q9Y680) 0.084, FGD6 (UniProt Q6ZV73) 0.427, FECH isoform 2 (UniProt P22830) -0.12, FBXW11 (UniProt Q9UKB1) 0.025, FANCI (UniProt Q9NVI1) 0.06, FBXO7 (UniProt Q9Y3I1) -0.008, FHL3 (UniProt Q13643) 0.041, FDX2 (UniProt Q6P4F2) -0.142, FNTB (UniProt P49356) -0.047, FBXO5 (UniProt Q9UKT4) 0.034, FMNL1 isoform 3 (UniProt O95466) 0.044, FLOT1 (UniProt O75955) 0.021, FGGY isoform 3 (UniProt Q96C11) 0.249, FEM1B (UniProt Q9UK73) -0.203, FNTA (UniProt P49354) 0.038, FBXO3 (UniProt Q9UK99) -0.125, FAM8A1 (UniProt Q9UBU6) -0.055, FDFT1 (UniProt P37268) -0.045, FMR1 (UniProt Q06787) -0.097, FNBP4 isoform 2 (UniProt Q8N3X1) 0.014, FLII (UniProt Q13045) 0.042, FEN1 (UniProt P39748) -0.014, FCHO1 (UniProt O14526) -0.061, FBXL12 (UniProt Q9NXK8) -0.028, FBXO2 (UniProt Q9UK22) -0.096, FLYWCH2 (UniProt Q96CP2) -0.037, FNIP1 isoform 3 (UniProt Q8TF40) -0.006
